According to patent US20150376225A1, “NOVEL COMPOUNDS OF 11BETA-HYDROXY-STEROIDS FOR USE IN MITOCHONDRIA BIOGENESIS AND DISEASES ASSOCIATED WITH MITOCHONDRIAL DYSFUNCTION OR DEPLETION” (SPHAERA PHARMA PVTD. LTD., priority 2013, published 2015):

System: BCAEC
Assay: 3-(4,5-Dimethylthiazol-2-yl)-2,5-diphenyltetrazolium bromide (MTT) assay, mitochondrial function (MTT/Methylene Blue ratio)
Format: cell-based, bovine
Conditions: treated for 48 hours
Description: 3-(4,5-Dimethylthiazol-2-yl)-2,5-diphenyltetrazolium bromide (MTT) assay
6,000 BCAEC were seeded into clear 96-well flat bottom plates at 100 μl per well. After starvation, cells were treated for 48 hours with the corresponding compounds. Compounds were changed every 12 and 24 hours (with 100 μl per well of fresh medium). Following the treatment medium was aspirated from plates, and washed once with 100 μl HBSS, subsequently 100 μl per well 0.5 mg/ml MTT in phenol red-free DMEM was added. Plates were incubated for 1 hour at 37° C., and this was followed by aspiration of MTT solution, addition of 100 μl per well DMSO to dissolve formazan crystals, and incubation at 37° C. for 15 minutes. Mitochondrial function was quantified by absorbance was measured at 540 nm with background substraction at 670 nm using. After MTT absorbance measure, media was removed and cells quantify in each well as described elsewhere (Oliver et al, 1989) with some modifications. In brief, 100 μl of 10% formol saline to each well was added, and incubated at 4° C. for 24 hours. Next, formol solution was removed from the wells and 100 μl of filtered 0.1% (w/v) Methylene Blue in 0.01 M borate buffer (pH 8.5) was added to each well. […] Absorbance was measured at 650 nm. The MTT/Methylene Blue ratio was used to quantify the mitochondrial function. […]

Compound	MTT Assay
CC(=O)[C@H]1CC[C@H]2[C@@H]3CC=C4C[C@@H](O)CC[C@]4(C)[C@H]3[C@@H](O)C[C@]12C [Compound 1002, 1-((3S,8S,9S,10R,11S,13S,14S,17S)-3,11-dihydroxy-10,13-dimethyl-2,3,4,7,8,9,10,11,12,13,14,15,16,17-tetradecahydro-1H-cyclopenta[a]phenanthren-17-yl)ethanone]	+ (+ indicates >110%)
CC(=O)[C@H]1CCC2C3CC=C4C[C@@H](O)CC[C@]4(C)C3[C@@H](O)C[C@@]21C (stereo partly drawn) [Compound 1016, 1-((3S,10R,11S,13S,17S)-3,11-dihydroxy-10,13-dimethyl-2,3,4,7,8,9,10,11,12,13,14,15,16,17-tetradecahydro-1H-cyclopenta[a]phenanthren-17-yl)ethan-1-one]	− (− indicates ≦110%)
